These are yes or no findings as the source states them, for the method shown. In cells and extracts the contact can be indirect. A result given as binding can be weak or reduced; the word gives no strength.

Sequences of proteins named here, by UniProt entry; tags and fusion partners are left off.
UniProt Q9Y5K6: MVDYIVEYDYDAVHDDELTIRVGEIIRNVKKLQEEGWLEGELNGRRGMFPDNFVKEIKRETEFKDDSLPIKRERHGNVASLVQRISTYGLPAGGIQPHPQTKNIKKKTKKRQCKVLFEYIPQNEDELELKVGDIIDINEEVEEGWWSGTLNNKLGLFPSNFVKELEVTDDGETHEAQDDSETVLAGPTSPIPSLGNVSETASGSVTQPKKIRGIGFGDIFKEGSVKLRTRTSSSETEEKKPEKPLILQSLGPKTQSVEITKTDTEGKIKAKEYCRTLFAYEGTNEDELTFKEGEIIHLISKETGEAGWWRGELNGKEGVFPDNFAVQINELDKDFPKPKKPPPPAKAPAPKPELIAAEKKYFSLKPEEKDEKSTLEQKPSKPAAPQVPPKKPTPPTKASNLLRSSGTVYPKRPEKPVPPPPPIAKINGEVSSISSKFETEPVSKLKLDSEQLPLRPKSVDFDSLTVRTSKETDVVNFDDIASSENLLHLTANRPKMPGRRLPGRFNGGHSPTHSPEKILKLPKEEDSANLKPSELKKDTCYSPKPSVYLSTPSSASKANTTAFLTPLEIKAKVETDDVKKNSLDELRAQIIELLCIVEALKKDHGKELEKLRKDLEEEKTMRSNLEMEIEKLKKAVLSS

The target of the experiment is CD2-associated protein (CD2AP) (human) (UniProt Q9Y5K6). Nature of the experiment: co-IP; endosomal protein lysates (non-denatured solubilisation reagent) of APPKO HEK293 cells transfected with APP_(swe695), APP_(K612Q) or APP_(K612T) plasmids; antibody and Protein A agarose beads, 4 °C overnight, washed 3 times with PBS, Western blot; which protein was precipitated not given. For orientation: Immunoblotting shows a protein as a band on a membrane.

Turning to “APP_(K612T) (lactyl-mimicking mutant of APP_(swe695)) (from UniProt P05067-4)”, the binding entry was “binds”. In the case of “APP_(K612Q) (delactylation-mimicking mutant of APP_(swe695)) (from UniProt P05067-4)” it was “binds”.

The record behind these values is PMC11684803.
